# Reference: PubChem BioAssay AID2685 (National Center for Advancing Translational Sciences (NCATS), 2010)
# In all, about 320,000 compounds went through this assay and about 2,100 (0.66%) were called active. The shares of active, inactive and inconclusive entries below differ from those in the screen. Calls follow the shape of the dose curve; as a rule, active = well fitted inhibition curve with a large enough effect in the signal ratio, with a control signal flat (not every such curve was filed as active); inconclusive = small, poorly fitted or top-dose-only effect, or effect the other way, or a change in a side signal; inactive = flat fitted curve, though single readings scatter; the % refers to the signal ratio. Potencies beside an inconclusive call are fits to weak or partial responses and may not hold up.
# Assay: qHTS Assay for Lipid Storage Modulators in Drosophila S3 Cells
# Conditions: BODIPY lipid droplet fluorescence, 18-24 h, cells fed with added oleic acid; lipid storage change, negative = inhibition: at 46.1 µM (top of the series) unless noted
# Summary of the method: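 Laser-scanning cytometry quantifies lipid droplet accumulation (500–530 nm total intensity; droplet/cell object ratio) in oleic acid-fed (400 uM added) Drosophila S3 cells treated with a concentration series. 20 uM Triacsin C defined 100% inhibition.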
# % is scaled to controls: 0 for no effect and ±100 for the full control effect; potency is read from the fitted curve at half-maximal effect.
Structure (SMILES),"lipid storage change, negative = inhibition",Potency,outcome
CN(CC(=O)Nc1cccc(F)c1)CC(=O)NC(c1ccccc1)c1ccccc1,inconclusive: -17.2%,–,–
CCOc1ccc2nc(SC3CC(=O)N(c4ccc(OC)cc4)C3=O)sc2c1 (stereo unspecified),inconclusive: -21.8%,–,–
COc1ccc(OC)c(CNC(=O)C2CCC(=O)N2C(C)C)c1 (stereo unspecified),inconclusive: 30.8%,–,–
CCn1nc(C(=O)NCCc2ccc(S(N)(=O)=O)cc2)c2ccccc2c1=O,–,"inconclusive: 0.291 µM [falling, partial curve]",–
O=C(c1ccc(NS(=O)(=O)c2cccs2)cc1)N1CCCCC1,inconclusive: -7.99%,–,–
O=C(CCN1C(=O)S/C(=C\c2ccc(F)cc2)C1=O)Nc1ccc(O)cc1C(=O)O,inconclusive: 12.9%,–,–
Cc1cccc(OCCCCn2c(CO)nc3ccccc32)c1,inconclusive: 3.83%,–,–
COc1ccc2c(c1)c(CC(=O)OCC(=O)N(C)C)c(C)n2C(=O)c1ccc(Cl)cc1,inconclusive: 71.1%,–,–
O=C(CC1NCCNC1=O)OCc1ccccc1 (stereo unspecified),inconclusive: -38.7%,–,–
O=C(CCNC(=O)C1CCN(S(=O)(=O)c2ccccc2)CC1)NCc1cccc(Cl)c1,–,"inconclusive: 1.3 µM [activator, full curve]",–
N#Cc1c(CSCC(=O)O)cc(=O)n2c1[nH]c1ccccc12,–,"inconclusive: 29.1 µM [activator, single point]",–
CC(Oc1ccccc1)C(=O)NC1CCCCCCC1 (stereo unspecified),–,"inconclusive: 16.4 µM [falling, single point]",–
CSCCC(NC(=O)/C(=C\c1ccc(Cl)cc1)NC(=O)c1ccccc1)C(=O)O (stereo unspecified),inconclusive: -30%,–,–
COc1cccc(C2CC(=O)NC(SC)=C2C#N)c1 (stereo unspecified),inconclusive: 7.05%,–,–
O=C(COC(=O)c1ccco1)NCC1CCCO1 (stereo unspecified),inconclusive: 55.4%,–,–
COc1ccc(-c2[nH]ncc2CN2CCC(C(=O)N3CCOCC3)CC2)c(F)c1,inconclusive: 25.9%,–,–
O=c1c2ccc(Cl)cc2[nH]c(=S)n1CCC1=CCCCC1,inconclusive: -20.9%,–,–
CCCCOc1cccc(C(=O)Nc2ccc(NC(=O)c3ccco3)cc2)c1,inconclusive: -112%,–,–
O=C(/C=C/c1ccncc1)c1cc(Cl)ccc1O,–,"inconclusive: 29.1 µM [cytotoxic, single point]",–
CCOC(=O)N1CCN(C(=S)NC(=O)c2nn(C)cc2Br)CC1,inconclusive: 10.2%,–,–
O=C(Nc1cccc(F)c1)Nc1ccc2c(c1)CCC2,–,"inconclusive: 0.0184 µM [activator, single point]",–
Cc1cc(NC(=O)Nc2ccc(Cl)cc2)n(-c2ccccc2)n1,inconclusive: 2.35%,–,–
COc1ccc(/C=C2\SC(=S)N(Cc3cccnc3)C2=O)cc1C,inconclusive: -25.4%,–,–
Cc1cc(C(=O)OCC(=O)Nc2cccc(S(=O)(=O)N(C)C)c2)c2ccccc2n1,inactive: -9.59%,–,–
CCOc1cc(/C=C2\COc3ccccc3C2=O)cc(Br)c1OCC(=O)N(C)C,–,–,inactive [at 46.1 µM]
N/C(=N\N=C\c1cccc([N+](=O)[O-])c1)c1nonc1N,inconclusive: 2.03%,–,–

Structure (SMILES),"lipid storage change, negative = inhibition",Potency,outcome
CCOc1ccc(C(=O)C(C)OC(=O)CN2C(=O)NC(C)(C)C2=O)cc1 (stereo unspecified),inconclusive: 43%,–,–
CCOc1cc(C2C3=C(CC(C)(C)CC3=O)OC3=C2C(=O)CC(C)(C)C3)cc([N+](=O)[O-])c1O,inconclusive: -60.3%,–,–
CCn1c(SC(C)C(=O)NC2CCCC2)nc2cc(S(N)(=O)=O)ccc21 (stereo unspecified),–,"inconclusive: 6.51 µM [falling, single point]",–
CC(=O)N1N=C(c2ccncc2)CC1c1ccccc1O (stereo unspecified),inconclusive: 29.1%,–,–
COc1cccc(/C=N/NC(=O)c2cccc([N+](=O)[O-])c2)c1OS(=O)(=O)c1ccc(C)cc1,–,"inconclusive: 2.91 µM [activator, single point]",–
COc1ccc(S(=O)(=O)N(C)C2CCN(C)CC2)cc1,inconclusive: 1.09%,–,–
CCCCCCCC(=O)Nc1cc(C(=O)NCc2ccc(C)cc2)ccc1N1CCC2(CC1)CC(c1cccc(Br)c1)=NO2,–,"inconclusive: 0.651 µM [falling, full curve, poor fit]",–
CC1CCc2nn(CC(=O)NCCCN3CCCCC3)cc2C1 (stereo unspecified),inconclusive: 0.558%,–,–
Nc1nc(Cl)nc2c1ncn2C1CC(O)C(CO)O1 (stereo unspecified),inconclusive: -49.3%,–,–
[N-]=[N+]=NC[C@H](c1ccccc1)N1CCN(Cc2ccccc2)CCC1=O,–,"inconclusive: 11.6 µM [falling, partial curve, poor fit]",–
CCOc1ccc(NCc2cccn2-c2nnc(N3CCC(C(=O)NCCCN4CCCCC4C)CC3)s2)cc1 (stereo unspecified),–,"inconclusive: 10.3 µM [activator, partial curve]",–
CC(C)(C)OC(=O)N1CCC(NC(=O)c2nc[nH]c2C(=O)N2CCc3ccccc3C2)CC1,–,"inconclusive: 16.4 µM [activator, partial curve, poor fit]",–
COC(=O)c1ccc(/C=N/Nc2nc(C)c(C)s2)cc1,inconclusive: -11.4%,–,–
Cc1cccc([C@@H]2[C@@H]3C(=O)N(Cc4ccccc4)C(=O)[C@@H]3[C@]3(Cc4ccccc4)C(=O)N(c4cccc(F)c4)C(=O)N23)c1,–,"inconclusive: 29.1 µM [activator, single point]",–
COc1ccccc1C(=O)c1cc2ccc(O)cc2oc1=O,inconclusive: 9.68%,–,–
CC1CCc2c(sc3nc(CN4CCOCC4)nc(NS(=O)(=O)c4cccc([N+](=O)[O-])c4)c23)C1 (stereo unspecified),–,"inconclusive: 6.51 µM [activator, partial curve, poor fit]",–
O=C(Nc1ccc(C(F)(F)F)cc1)c1cccnc1N1CCOCC1,–,"inconclusive: 6.51 µM [activator, single point]",–
CCN1CCN(C(=S)Nc2sc(C)c(-c3ccccc3)c2C(=O)OC)CC1,–,"inconclusive: 29.1 µM [activator, single point]",–
CN1CCN(NC(=S)NC2CCCC2)CC1,inconclusive: -30.8% [at 9.22 µM],–,–
CC1(C)CC(=O)C2=C(C1)OC(N)=C(C#N)C2C#Cc1ccccc1 (stereo unspecified),inconclusive: 22.4%,–,–
N#CCC(=O)Nc1ccc(C(=O)OCC(=O)Nc2ccc3ccccc3c2)cc1,–,"inconclusive: 6.51 µM [activator, single point]",–
Cc1nc2c(c(C)c1C#N)C(=O)c1ccccc1-2,inconclusive: 55.2%,–,–
O=C(O)c1cc(NC(=O)c2cccc(F)c2)cc(NC(=O)c2cccc(F)c2)c1,inconclusive: 19%,–,–
CSc1ncccc1C(=O)Nc1ccc2nc(C)sc2c1,inconclusive: 27.8%,–,–
COCCCN1CN(Cc2ccco2)CNC1=S,inconclusive: 19.3%,–,–
C/C(=N\NS(=O)(=O)c1ccc(Br)cc1)c1cccs1,inconclusive: -10.8%,–,–

# By substructure, the compounds so far with a nitro group on carbon
Structure (SMILES),"lipid storage change, negative = inhibition",Potency,outcome
N/C(=N\N=C\c1cccc([N+](=O)[O-])c1)c1nonc1N,inconclusive: 2.03%,–,–
CCOc1cc(C2C3=C(CC(C)(C)CC3=O)OC3=C2C(=O)CC(C)(C)C3)cc([N+](=O)[O-])c1O,inconclusive: -60.3%,–,–
COc1cccc(/C=N/NC(=O)c2cccc([N+](=O)[O-])c2)c1OS(=O)(=O)c1ccc(C)cc1,–,"inconclusive: 2.91 µM [activator, single point]",–
CC1CCc2c(sc3nc(CN4CCOCC4)nc(NS(=O)(=O)c4cccc([N+](=O)[O-])c4)c23)C1 (stereo unspecified),–,"inconclusive: 6.51 µM [activator, partial curve, poor fit]",–

# (list continues)

Structure (SMILES),"lipid storage change, negative = inhibition",Potency,outcome
N#Cc1cc([N+](=O)[O-])ccc1Oc1ccc(-c2nnco2)cc1,inconclusive: 35.9%,–,–
COc1ccc(N2CCN(C(CNC(=O)c3cccc(Cl)c3)c3cccnc3)CC2)cc1 (stereo unspecified),inconclusive: 3.61%,–,–
C=CCn1c(=O)n(C(=O)OCC)c2cc(Br)ccc21,inconclusive: -3.51%,–,–
COCCNc1nnc(SCC(=O)c2c[nH]c3ccccc23)s1,–,"inconclusive: 25.9 µM [falling, partial curve, poor fit]",–
CN(CC(=O)Nc1ccc(N2CCOCC2)cc1)C(=O)CSc1ccc(Br)cc1,inconclusive: -79.8%,–,–
Cc1ccc(C)c(NC(=S)/C(=C(\[O-])c2ccc(Cl)s2)[n+]2ccccc2)c1,inconclusive: 17.5%,–,–
O=c1cc(N2CCCCC2)c(-c2ccccc2)nn1Cc1cccc(Cl)c1,inconclusive: 14.4%,–,–
Cc1cc(Nc2ccc(C(C)C)cc2)n2ncnc2n1,inconclusive: 25.2%,–,–
Cc1cccc(NC(=O)COC(=O)CCc2ccccc2)c1C,–,"inconclusive: 13 µM [activator, single point]",–
COc1cc(Cl)c(S(=O)(=O)N2CC(C)OC(C)C2)cc1Cl (stereo unspecified),inconclusive: -24.6%,–,–
CCc1ccc(C(=O)NN=C2CCCCCC2)s1,–,"inconclusive: 6.51 µM [activator, partial curve, poor fit]",–
COc1ccc(CCNC(=O)c2cnccn2)cc1,inconclusive: -12.9%,–,–
COc1ccc2cc(OCC(=O)NNC(=O)Nc3ccc(C(C)=O)cc3)ccc2c1,inconclusive: 45.7%,–,–
CCC(c1nnnn1C1CCCCC1)N(Cc1ccco1)Cc1cc2ccc(OC)cc2[nH]c1=O (stereo unspecified),inconclusive: -10.9%,–,–
CC(C)c1nc2scc(-c3ccc(Cl)cc3)c2c(=O)n1N,–,"inconclusive: 2.59 µM [activator, full curve]",–
Cc1ccc(CCNC(=O)C2CCN(S(=O)(=O)N3CCCC3)CC2)cc1,inconclusive: -1.2%,–,–
Cc1cccc(CS(=O)(=O)Cc2ccc(C(=O)NC3CCCCCC3)o2)c1,–,"inconclusive: 18.4 µM [falling, partial curve, poor fit]",–
Cn1nc(-c2ccc3c(c2)OCCO3)c2ccccc2c1=O,inconclusive: 61.7%,–,–
O=C(Cn1ccc(NC(=O)OCc2ccccc2)nc1=O)NCCCc1ccccc1,inconclusive: 11.1%,–,–
CCCCCCCC(O)CC(CC1CCCCC1)C(=O)NN (stereo unspecified),inconclusive: -35.7%,–,–
O=C(O)CCC(=O)N1CCc2cc(S(=O)(=O)NCc3ccc(Cl)cc3)ccc21,inactive: 2.28%,–,–
CCCSc1ccc2nc(NC(=O)OC)[nH]c2c1,inconclusive: -0.807%,–,–
O=C(O)c1ccc(N2CC3CC(C2)c2cccc(=O)n2C3)c(NC(=S)Nc2ccc(Br)cc2)c1 (stereo unspecified),inconclusive: -3.42%,–,–
CC(C)C[C@H]1CNC(=O)C(=O)N1C[C@H](C)NC(=O)Cc1ccccc1,inconclusive: 11.4%,–,–
